The experiment has as its target Cytochrome P450 2C19 (Homo sapiens, UniProt P33261). The experiment in a line: Inhibition of CYP2C19 in human liver microsomes preincubated for 10 mins followed by NADPH addition and measured after 15 mins by LC/MS/MS analysis. A general note: Liver microsomes are a subcellular fraction often used to study metabolism.

Amino acid sequences for entries named in this document (tags omitted).
UniProt P33261, whole entry: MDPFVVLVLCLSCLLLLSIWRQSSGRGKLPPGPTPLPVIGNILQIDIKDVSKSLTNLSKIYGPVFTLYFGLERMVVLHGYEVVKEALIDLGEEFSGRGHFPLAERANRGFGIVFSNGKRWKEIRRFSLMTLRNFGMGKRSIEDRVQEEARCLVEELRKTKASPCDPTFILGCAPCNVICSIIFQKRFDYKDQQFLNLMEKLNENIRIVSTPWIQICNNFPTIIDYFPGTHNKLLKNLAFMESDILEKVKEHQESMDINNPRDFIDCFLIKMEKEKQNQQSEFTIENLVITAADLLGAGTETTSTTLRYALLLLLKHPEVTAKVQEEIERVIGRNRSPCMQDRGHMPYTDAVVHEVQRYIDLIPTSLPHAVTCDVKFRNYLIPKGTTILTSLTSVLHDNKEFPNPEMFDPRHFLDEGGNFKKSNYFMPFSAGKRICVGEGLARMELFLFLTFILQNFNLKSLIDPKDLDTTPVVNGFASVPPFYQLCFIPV

A word on the IC50: it is the midpoint of a concentration-inhibition curve. As to `N#Cc1ccc(Nc2nccc(Nc3c(F)cc(-c4ccncc4)cc3F)n2)cc1`, half-maximal inhibition (IC50) was put at 6.8 µM.

The values above are taken from ChEMBL document CHEMBL6120973 (J Med Chem, 2024).
